PubChem BioAssay AID1224830, NIAID – 2016
Aim: 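Host factors that control LPS-induced TNF expression in human macrophages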 (primary screen). Cells: human THP-1 monocytic leukaemia cells, TNF dual-luciferase reporter clone, PMA-differentiated to macrophage-like cells. Reagents: siRNA pool against human genes, 50 nM. Timing: LPS for 4 h, given about 3 days after siRNA transfection. Conditions: bacterial LPS (TLR4 ligand), 10 ng/ml. Read-out: 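Ratio of firefly to renilla light, scaled to the plate median and expressed as a robust z-score per replicate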. Direction: TNF reporter robust z-score: higher = stronger TNF reporter response to LPS. Rule for the call: 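a well is active when its z-score exceeds 2.8 or falls below -1.5; control wells carry no call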.
Here is one part, drawn at random, of about 18,000 reagents. About 2,900 of them (16%) count as active. 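Calls are made per well; low scores hint the gene aids the LPS response, high scores that it dampens it.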 Repeated entries: four replicate wells of each siRNA pool. No sequences are given here.

Target gene,TNF reporter robust z-score,call
RAB5C,0.54,inactive
RAB5C,1.53,inactive
RAB5C,0.94,inactive
RAB5C,2.4,inactive
IFNA13,-1.33,inactive
IFNA13,-1.03,inactive
IFNA13,-0.99,inactive
IFNA13,-0.52,inactive
ZIC5,0.47,inactive
ZIC5,-0.94,inactive
ZIC5,-1.38,inactive
ZIC5,-0.38,inactive
MFSD6,1.37,inactive
MFSD6,1.57,inactive
MFSD6,0.81,inactive
SMC1A,2.12,inactive
SMC1A,1.73,inactive
SMC1A,0.62,inactive
SMC1A,1.09,inactive
SLC25A13,0.22,inactive
SLC25A13,0.93,inactive
SLC25A13,0.61,inactive
SLC25A13,0.62,inactive

Next part (3 carried over from the part before).
Target gene,TNF reporter robust z-score,call
SLC25A13,0.93,inactive
SLC25A13,0.61,inactive
SLC25A13,0.62,inactive
ZNF507,-1.05,inactive
ZNF507,0.86,inactive
ZNF507,0.48,inactive
ZNF507,-0.8,inactive
TMEM86A,1.5,inactive
TMEM86A,1.56,inactive
TMEM86A,-0.32,inactive
TMEM86A,0.7,inactive
TRPM5,-0.34,inactive
TRPM5,2.69,inactive
TRPM5,-0.43,inactive
TRPM5,0.76,inactive
MRPS18C,-1.94,active
MRPS18C,-1.46,inactive
MRPS18C,-1.23,inactive
MRPS18C,-1.27,inactive
TBPL2,-0.95,inactive
TBPL2,-1.51,active
TBPL2,-1.39,inactive
TBPL2,-0.04,inactive
TNIK,-0.41,inactive
TNIK,-0.06,inactive
TNIK,-0.65,inactive
TNIK,-0.22,inactive
